Values from PubChem BioAssay AID1259254 (NCATS, 2017)

- Assay: 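Gene knock-downs that lead to re-replication, shown by excess G2 DNA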 (primary screen)
- System: human HCT116 colorectal cancer cells
- Reagents: single siRNA against human genes
- Timing: 3 days
- Read-out: 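Imaged Hoechst DNA stain sorts each cell into a cycle phase by DNA amount; per plate, G2 fraction set to 0% for non-targeting and 100% for GMNN siRNA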
- Scale: G2 robust z-score: higher = more G2 cells, more excess DNA replication
- Hit rule: 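An siRNA counts as active if its G2 robust z-score lies at least 5 MADs above the screen median; here such calls match roughly 38% of GMNN control or more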
The whole screen tested about 59,000 reagents; below is a random part of them. About 1,550 of all reagents (2.6%) were called active. 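G2 share is only a proxy for re-replication; each gene was hit by three separate siRNAs, and active genes were retested.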 Unmarked entries are inactive. Not all columns of the deposit are shown. The record does not give: the amount of reagent.

{"gene":"BASP1","PubChem SID":"SID160728354","G2 robust z-score":2.86}
{"gene":"BASP1","PubChem SID":"SID160728355","G2 robust z-score":-0.343}
{"gene":"BASP1","PubChem SID":"SID160728356","G2 robust z-score":-0.0225}
{"gene":"MTG2","PubChem SID":"SID160730921","G2 robust z-score":0.638}
{"gene":"MTG2","PubChem SID":"SID160737731","G2 robust z-score":2.61}
{"gene":"MTG2","PubChem SID":"SID160737732","G2 robust z-score":4.34}
{"gene":"SYT17","PubChem SID":"SID160741320","G2 robust z-score":-0.658}
{"gene":"SYT17","PubChem SID":"SID160741321","G2 robust z-score":-0.417}
{"gene":"SYT17","PubChem SID":"SID160741322","G2 robust z-score":-0.196}
{"gene":"CITED4","PubChem SID":"SID160732605","G2 robust z-score":0.372}
{"gene":"CITED4","PubChem SID":"SID160732606","G2 robust z-score":0.187}
{"gene":"CITED4","PubChem SID":"SID160760065","G2 robust z-score":-0.477}
{"gene":"ANGPTL4","PubChem SID":"SID160731355","G2 robust z-score":-0.0383}
{"gene":"ANGPTL4","PubChem SID":"SID160740136","G2 robust z-score":-0.592}
{"gene":"ANGPTL4","PubChem SID":"SID160740138","G2 robust z-score":-1.36}
{"gene":"TSACC","PubChem SID":"SID160724794","G2 robust z-score":-0.737}
{"gene":"TSACC","PubChem SID":"SID160756719","G2 robust z-score":2.62}
{"gene":"TSACC","PubChem SID":"SID160756720","G2 robust z-score":0.239}
{"gene":"RASGRP1","PubChem SID":"SID160725691","G2 robust z-score":-0.744}
{"gene":"RASGRP1","PubChem SID":"SID160725697","G2 robust z-score":0.433}
{"gene":"RASGRP1","PubChem SID":"SID160725702","G2 robust z-score":-0.291}
{"gene":"ACSM2B","PubChem SID":"SID160725125","G2 robust z-score":-1.14}
{"gene":"ACSM2B","PubChem SID":"SID160731125","G2 robust z-score":-0.137}
{"gene":"ACSM2B","PubChem SID":"SID160765053","G2 robust z-score":0.141}
